# Results as given in patent EP4408435B1, “C[…], CITRAL AND SODIUM ALGINATE AS A FILM-FORMING SUBSTANCE FOR PROPHYLAXIS OF INFECTIONS” (priority 2021, dated 2023).
# Experiment: Testing of taste
structure (smiles),measurement,value
OCC(O)CO [Glycerol],Taste,Special sweet taste
